Experimental data taken from US9394561B2 (National Research Council of Canada, priority 2011, dated 2016).

Assay: peptide made by a vendor
Conditions: whole synthesis

## GVPVWA-FQAKDVENASAPV (GVPVWAFQAKDVENASAPV; listed as Saponaria vaccaria)
  purity (crude or final not stated): purity>75%
